Some entries share one result that the patent states for a list of compounds.
Test system: Ascaridia galli (intestinal roundworm of chicken), larval stage 3 (L3)
Experiment: in vitro anthelmintic larval assay, microscopic examination, MEC
Type: cell-based
Settings: at least some activity against one or more of the nematodes (Ascaridia galli L3; Oesophagostomum dentatum L3, L4), species not specified; 20 larvae per well, versus DMSO-control

Cc1ccnc(N2CCCC3(CCN(C(=O)/C=C/C(F)(F)F)C3)C2)c1 (racemic) [B-1, (E)-4,4,4-trifluoro-1-[7-(4-methyl-2-pyridyl)-2,7-diazaspiro[4.5]decan-2-yl]but-2-en-1-one]
minimum effective concentration (MEC): ≤ 50 µM

From patent publication US9321724B2, “Heteroaryl compounds with A-cyclic bridging unit” (Intervet Inc., priority 2012, dated 2016)
